Assay results published in the supplement of paper PMC8728848.
Some of the results follow.

Key:
Experiment in all cases: glycan array binding signal (z-score within array); higher = stronger binding
Conditions in all cases: glycan notation: IUPAC condensed, linker removed
[1] = target: Man(a1-2)Man(a1-3)[Man(a1-2)Man(a1-6)]Man(a1-6)[Man(a1-2)Man(a1-2)Man(a1-3)]Man
Procedure, shortened: (§1)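 Arrays were curated from the Consortium for Functional Glycomics database, 3228 in total, and kept only where the protein sequence was available. Binding is expressed as a within-array Z-score. This score was averaged across arrays of the same protein sequence at different concentrations or buffers and across linkers, and negative values can be read as non-binding.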

[2] = target: Man(a1-2)Man(a1-3)[Man(a1-2)Man(a1-6)]Man(a1-6)[Man(a1-2)Man(a1-2)Man(a1-3)]Man(b1-4)GlcNAc(b1-4)GlcNAc
Procedure, shortened: as §1

[3] = target: Man(a1-2)Man(a1-3)[Man(a1-6)]Man(a1-6)[Man(a1-2)Man(a1-3)]Man(b1-4)GlcNAc(b1-4)GlcNAc
Procedure, shortened: as §1

[4] = target: Man(a1-2)Man(a1-6)[Man(a1-3)]Man(a1-6)[Man(a1-2)Man(a1-2)Man(a1-3)]Man
Procedure, shortened: as §1

[5] = target: Man(a1-2)Man(a1-6)[Man(a1-3)]Man(a1-6)[Man(a1-2)Man(a1-2)Man(a1-3)]Man(b1-4)GlcNAc(b1-4)GlcNAc
Procedure, shortened: as §1

Man(a1-3)[Man(a1-6)]Man = target: Man(a1-3)[Man(a1-6)]Man
Procedure, shortened: as §1

[6] = target: Man(a1-3)[Man(a1-6)]Man(a1-6)[Man(a1-2)Man(a1-3)]Man(b1-4)GlcNAc(b1-4)GlcNAc
Procedure, shortened: as §1

[7] = target: Man(a1-3)[Man(a1-6)]Man(a1-6)[Man(a1-3)]Man
Procedure, shortened: as §1

[8] = target: Man(a1-3)[Man(a1-6)]Man(a1-6)[Man(a1-3)]Man(b1-4)GlcNAc(b1-4)GlcNAc
Procedure, shortened: as §1

[9] = target: Man(a1-3)[Man(a1-6)]Man(b1-4)GlcNAc(b1-4)GlcNAc
Procedure, shortened: as §1

[10] = target: Man(a1-3)[Man(a1-6)]Man(b1-4)GlcNAc(b1-4)[Fuc(a1-6)]GlcNAc
Procedure, shortened: as §1

Man(a1-6)Man = target: Man(a1-6)Man
Procedure, shortened: as §1

Man(b1-4)GlcNAc = target: Man(b1-4)GlcNAc
Procedure, shortened: as §1

MurNAc(b1-4)GlcNAc = target: MurNAc(b1-4)GlcNAc
Procedure, shortened: as §1

Neu5Ac(a2-3)Gal = target: Neu5Ac(a2-3)Gal
Procedure, shortened: as §1

[11] = target: Neu5Ac(a2-3)Gal(b1-3)GalNAc
Procedure, shortened: as §1

[12] = target: Neu5Ac(a2-3)Gal(b1-3)GalNAc(b1-3)Gal(a1-4)Gal(b1-4)Glc
Procedure, shortened: as §1

[13] = target: Neu5Ac(a2-3)Gal(b1-3)GalNAc(b1-4)Gal(b1-4)Glc
Procedure, shortened: as §1

[14] = target: Neu5Ac(a2-3)Gal(b1-3)GalNAc(b1-4)[Neu5Ac(a2-3)]Gal(b1-4)Glc
Procedure, shortened: as §1

[15] = target: Neu5Ac(a2-3)Gal(b1-3)GalNAc(b1-4)[Neu5Ac(a2-8)Neu5Ac(a2-3)]Gal(b1-4)Glc
Procedure, shortened: as §1

[16] = target: Neu5Ac(a2-3)Gal(b1-3)GalNAc6S
Procedure, shortened: as §1

[17] = target: Neu5Ac(a2-3)Gal(b1-3)GlcNAc
Procedure, shortened: as §1

[18] = target: Neu5Ac(a2-3)Gal(b1-3)GlcNAc(b1-2)Man
Procedure, shortened: as §1

[19] = target: Neu5Ac(a2-3)Gal(b1-3)GlcNAc(b1-2)Man(a1-3)[GlcNAc(b1-4)][Neu5Ac(a2-3)Gal(b1-3)GlcNAc(b1-2)Man(a1-6)]Man(b1-4)GlcNAc(b1-4)GlcNAc
Procedure, shortened: as §1

[20] = target: Neu5Ac(a2-3)Gal(b1-3)GlcNAc(b1-2)Man(a1-3)[Neu5Ac(a2-3)Gal(b1-3)GlcNAc(b1-2)Man(a1-6)]Man(b1-4)GlcNAc(b1-4)GlcNAc
Procedure, shortened: as §1

[21] = target: Neu5Ac(a2-3)Gal(b1-3)GlcNAc(b1-2)[Neu5Ac(a2-3)Gal(b1-3)GlcNAc(b1-4)]Man(a1-6)[Neu5Ac(a2-3)Gal(b1-3)GlcNAc(b1-2)Man(a1-3)]Man(b1-4)GlcNAc(b1-4)GlcNAc
Procedure, shortened: as §1

[22] = target: Neu5Ac(a2-3)Gal(b1-3)GlcNAc(b1-3)Gal(b1-3)GlcNAc
Procedure, shortened: as §1

[23] = target: Neu5Ac(a2-3)Gal(b1-3)GlcNAc(b1-3)Gal(b1-4)GlcNAc
Procedure, shortened: as §1

[24] = target: Neu5Ac(a2-3)Gal(b1-3)GlcNAc(b1-3)GalNAc
Procedure, shortened: as §1

[25] = target: Neu5Ac(a2-3)Gal(b1-3)GlcNAc(b1-6)GalNAc
Procedure, shortened: as §1

[26] = target: Neu5Ac(a2-3)Gal(b1-3)GlcNAc6S
Procedure, shortened: as §1

[27] = target: Neu5Ac(a2-3)Gal(b1-3)[Fuc(a1-4)]GlcNAc
Procedure, shortened: as §1

[28] = target: Neu5Ac(a2-3)Gal(b1-3)[Fuc(a1-4)]GlcNAc(b1-3)Gal(b1-3)[Fuc(a1-4)]GlcNAc
Procedure, shortened: as §1

[29] = target: Neu5Ac(a2-3)Gal(b1-3)[Fuc(a1-4)]GlcNAc(b1-3)Gal(b1-4)[Fuc(a1-3)]GlcNAc
Procedure, shortened: as §1

[30] = target: Neu5Ac(a2-3)Gal(b1-3)[GlcNAc(b1-6)]GalNAc
Procedure, shortened: as §1

[31] = target: Neu5Ac(a2-3)Gal(b1-3)[Neu5Ac(a2-6)]GalNAc
Procedure, shortened: as §1

[32] = target: Neu5Ac(a2-3)Gal(b1-3)[Neu5Ac(a2-6)]GlcNAc(b1-3)[Fuc(a1-3)[Gal(b1-4)]GlcNAc(b1-6)]Gal(b1-4)Glc
Procedure, shortened: as §1

[33] = target: Neu5Ac(a2-3)Gal(b1-3)]Neu5Ac(a2-3)Gal(b1-4)]GlcNAc
Procedure, shortened: as §1

Neu5Ac(a2-3)Gal(b1-4)Glc = target: Neu5Ac(a2-3)Gal(b1-4)Glc
Procedure, shortened: as §1

[34] = target: Neu5Ac(a2-3)Gal(b1-4)GlcNAc
Procedure, shortened: as §1

[35] = target: Neu5Ac(a2-3)Gal(b1-4)GlcNAc(b1-2)Man
Procedure, shortened: as §1

[36] = target: Neu5Ac(a2-3)Gal(b1-4)GlcNAc(b1-2)Man(a1-3)[GlcNAc(b1-4)][Neu5Ac(a2-3)Gal(b1-4)GlcNAc(b1-2)Man(a1-6)]Man(b1-4)GlcNAc(b1-4)GlcNAc
Procedure, shortened: as §1

[37] = target: Neu5Ac(a2-3)Gal(b1-4)GlcNAc(b1-2)Man(a1-3)[Neu5Ac(a2-3)Gal(b1-4)GlcNAc(b1-2)Man(a1-6)]Man(b1-4)GlcNAc(b1-4)GlcNAc
Procedure, shortened: as §1

[38] = target: Neu5Ac(a2-3)Gal(b1-4)GlcNAc(b1-2)Man(a1-3)[Neu5Ac(a2-3)Gal(b1-4)GlcNAc(b1-2)Man(a1-6)]Man(b1-4)GlcNAc(b1-4)[Fuc(a1-6)]GlcNAc
Procedure, shortened: as §1

[39] = target: Neu5Ac(a2-3)Gal(b1-4)GlcNAc(b1-2)Man(a1-3)[Neu5Ac(a2-6)Gal(b1-4)GlcNAc(b1-2)Man(a1-6)]Man(b1-4)GlcNAc(b1-4)GlcNAc
Procedure, shortened: as §1

B1: YghJ (Escherichia coli), E3PJ90 (protein)
chain: MNKKFKYKKSLLAAILSATLLAGCDGGGSGSSSDTPPVDSGTGSLPEVKPDPTPNPEPTPEPTPDPEPTPEPIPDPEPTPEPEPEPVPTKTGYLTLGGSQRVTGATCNGESSDGFTFKPGEDVTCVAGNTTIATFNTQSEAARSLRAVEKVSFSLEDAQELAGSDDKKSNAVSLVTSSNSCPANTEQVCLTFSSVIESKRFDSLYKQIDLAPEEFKKLVNEEVENNAATDKAPSTHTSPVVPVTTPGTKPDLNASFVSANAEQFYQYQPTEIILSEGRLVDSQGYGVAGVNYYTNSGRGVTGENGEFSFSWGEAISFGIDTFELGSVRGNKSTIALTELGDEVRGANIDQLIHRYSTTGQNNTRVVPDDVRKVFAEYPNVINEIINLSLSNGATLGEGEQVVNLPNEFIEQFNTGQAKEIDTAICAKTDGCNEARWFSLTTRNVNDGQIQGVINKLWGVDTNYKSVSKFHVFHDSTNFYGSTGNARGQAVVNISNAAFPILMARNDKNYWLAFGEKRAWDKNELAYITEAPSIVRPENVTRETASFNLPFISLGQVGDGKLMVIGNPHYNSILRCPNGYSWNGGVNKDGQCTLNSDPDDMKNFMENVLRYLSNDRWLPDAKSSMTVGTNLETVYFKKHGQVLGNSAPFAFHKDFTGITVKPMTSYGNLNPDEVPLLILNGFEYVTQWGSDPYSIPLRADTSKPKLTQQDVTDLIAYMNKGGSVLIMENVMSNLKEESASGFVRLLDAAGLSMALNKSVVNNDPQGYPDRVRQRRSTPIWVYERYPAVDGKPPYTIDDTTKEVIWKYQQENKPDDKPKLEVASWQEEVEGKQVTQFAFIDEADHKTPESLAAAKQRILDAFPGLEVCKDSDYHYEVNCLEYRPGTDVPVTGGMYVPQYTQLDLSADTAKAMLQAADLGTNIQRLYQHELYFRTNGRQGERLNSVDLERLYQNMSVWLWNETKYRYEEGKEDELGFKTFTEFLNCYTNNAYVGTQCSAELKKSLIDNKMIYGEESSKAGMMNPSYPLNYMEKPLTRLMLGRSWWDLNIKVDVEKYPGVVNTNGETVTQNINLYSAPTKWFAGNMQSTGLWAPAQQEVSIESKSTVPVTVTVALADDLTGREKHEVSLNRPPRVTKTYDLKANDKVTFKVPYGGLIYIKGDSKEVQSADFTFTGVVKAPFYKDGKWQHDLNSPAPLGELESASFVYTTPKKNLNASNYTGGLEQFANDLDTFASSMNDFYGRDSEDGKHRMFTYKNLPGHKHRFANDVQISIGDAHSGYPVMNSSFSPNSTTLPTTPLNDWLIWHEVGHNAAETPLTVPGATEVANNVLALYMQDRYLGKMNRVADDITVAPEYLEESNGQAWARGGAGDRLLMYAQLKEWAEKNFDIKKWYPDGTPLPEFYSEREGMKGWNLFQLMHRKARGDEVSNDKFGGKNYCAESNGNAADTLMLCASWVAQTDLSEFFKKWNPGANAYQLPGASEMSFEGGVSQSAYNTLASLDLPKPEQGPETINQVTEHKMSAE
In the case of B1, the “glycan array binding signal (z-score)” value [1] is reported as 0.358, the “glycan array binding signal (z-score)” value [2] is reported as -0.01 and the “glycan array binding signal (z-score)” value [3] is reported as -0.163. The “glycan array binding signal (z-score)” value [4] was -2.12, the “glycan array binding signal (z-score)” value [5] was -0.299 and the “glycan array binding signal (z-score)” value (Man(a1-3)[Man(a1-6)]Man) was -1.45. For the same binder, the “glycan array binding signal (z-score)” value [6] was -1.36, the “glycan array binding signal (z-score)” value [7] was -1.22 and the “glycan array binding signal (z-score)” value [8] was -1.53. For the same binder, the “glycan array binding signal (z-score)” value [9] was -0.69, the “glycan array binding signal (z-score)” value [10] was 1.51 and the “glycan array binding signal (z-score)” value (Man(a1-6)Man) was 1.96. The “glycan array binding signal (z-score)” value (Man(b1-4)GlcNAc) was 0.997, the “glycan array binding signal (z-score)” value (MurNAc(b1-4)GlcNAc) was 1.93 and the “glycan array binding signal (z-score)” value (Neu5Ac(a2-3)Gal) was -1.37. The “glycan array binding signal (z-score)” value [11] was 0.058, the “glycan array binding signal (z-score)” value [12] was -1.31 and the “glycan array binding signal (z-score)” value [13] was 0.186. For the same binder, the “glycan array binding signal (z-score)” value [14] was 0.049, the “glycan array binding signal (z-score)” value [15] was 0.378 and the “glycan array binding signal (z-score)” value [16] was -0.496. For the same binder, the “glycan array binding signal (z-score)” value [17] was 0.286, the “glycan array binding signal (z-score)” value [18] was -1.85 and the “glycan array binding signal (z-score)” value [19] was -1.12. For the same binder, the “glycan array binding signal (z-score)” value [20] was 2.23, the “glycan array binding signal (z-score)” value [21] was -0.007 and the “glycan array binding signal (z-score)” value [22] was -1.35. For the same binder, the “glycan array binding signal (z-score)” value [23] was -0.972, the “glycan array binding signal (z-score)” value [24] was -0.159 and the “glycan array binding signal (z-score)” value [25] was 0.418. For the same binder, the “glycan array binding signal (z-score)” value [26] was -0.847, the “glycan array binding signal (z-score)” value [27] was -0.959 and the “glycan array binding signal (z-score)” value [28] was 0.951. The “glycan array binding signal (z-score)” value [29] was -0.662, the “glycan array binding signal (z-score)” value [30] was -0.567 and the “glycan array binding signal (z-score)” value [31] was -0.685. The “glycan array binding signal (z-score)” value [32] was 0.46, the “glycan array binding signal (z-score)” value [33] was 0.401 and the “glycan array binding signal (z-score)” value (Neu5Ac(a2-3)Gal(b1-4)Glc) was 1.44. The “glycan array binding signal (z-score)” value [34] was -0.721, the “glycan array binding signal (z-score)” value [35] was 1.72 and the “glycan array binding signal (z-score)” value [36] was -1.36. For the same binder, the “glycan array binding signal (z-score)” value [37] was 0.306, the “glycan array binding signal (z-score)” value [38] was 0.41 and the “glycan array binding signal (z-score)” value [39] was -0.105.
